{"source": "paper doi:10.1101/2025.10.30.685510", "key": {"[1]": {"target": "T1, EssC with a C-terminal Twin-Strep tag (Staphylococcus aureus) (UniProt Q2G184)", "T1 sequence": "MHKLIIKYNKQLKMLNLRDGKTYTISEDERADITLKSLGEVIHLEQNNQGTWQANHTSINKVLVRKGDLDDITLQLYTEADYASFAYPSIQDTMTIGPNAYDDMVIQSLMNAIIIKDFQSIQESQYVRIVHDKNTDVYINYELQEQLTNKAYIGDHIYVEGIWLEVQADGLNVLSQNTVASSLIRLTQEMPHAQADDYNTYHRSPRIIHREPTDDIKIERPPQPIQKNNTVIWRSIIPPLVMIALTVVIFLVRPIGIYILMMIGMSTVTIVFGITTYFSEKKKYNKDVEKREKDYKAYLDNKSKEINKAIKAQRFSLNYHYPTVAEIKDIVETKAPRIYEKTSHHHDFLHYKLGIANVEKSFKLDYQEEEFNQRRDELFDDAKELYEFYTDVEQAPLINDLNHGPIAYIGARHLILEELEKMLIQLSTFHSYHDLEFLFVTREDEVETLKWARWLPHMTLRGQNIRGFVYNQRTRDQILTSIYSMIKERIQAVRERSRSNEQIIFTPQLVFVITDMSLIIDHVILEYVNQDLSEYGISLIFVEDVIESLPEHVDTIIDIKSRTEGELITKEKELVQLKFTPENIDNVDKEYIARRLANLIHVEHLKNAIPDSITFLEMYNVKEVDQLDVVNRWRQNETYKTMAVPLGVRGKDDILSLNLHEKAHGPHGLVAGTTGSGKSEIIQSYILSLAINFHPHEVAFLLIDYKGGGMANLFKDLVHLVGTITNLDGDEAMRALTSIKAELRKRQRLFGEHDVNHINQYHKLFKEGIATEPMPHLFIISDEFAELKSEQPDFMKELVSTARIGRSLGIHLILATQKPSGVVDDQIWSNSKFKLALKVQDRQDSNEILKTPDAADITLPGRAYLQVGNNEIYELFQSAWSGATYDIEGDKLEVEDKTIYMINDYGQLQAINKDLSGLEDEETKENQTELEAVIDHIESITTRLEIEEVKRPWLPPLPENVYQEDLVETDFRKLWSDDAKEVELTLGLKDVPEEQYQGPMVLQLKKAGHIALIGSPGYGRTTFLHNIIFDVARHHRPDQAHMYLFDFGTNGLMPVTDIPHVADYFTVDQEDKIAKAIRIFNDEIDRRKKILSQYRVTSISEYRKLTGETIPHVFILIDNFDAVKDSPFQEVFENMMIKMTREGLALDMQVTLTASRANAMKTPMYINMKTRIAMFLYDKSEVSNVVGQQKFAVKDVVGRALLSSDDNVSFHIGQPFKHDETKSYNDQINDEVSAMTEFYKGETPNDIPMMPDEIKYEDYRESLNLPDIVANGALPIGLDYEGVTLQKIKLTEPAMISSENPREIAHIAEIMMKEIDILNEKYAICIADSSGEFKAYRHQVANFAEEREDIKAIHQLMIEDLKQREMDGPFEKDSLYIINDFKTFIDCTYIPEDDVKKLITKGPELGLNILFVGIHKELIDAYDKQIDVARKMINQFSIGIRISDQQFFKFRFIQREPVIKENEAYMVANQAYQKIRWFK", "experiment": "pull-down"}, "[2]": {"target": "T1, EssC with a C-terminal Twin-Strep tag (Staphylococcus aureus)", "experiment": "pull-down", "remark": "listed apart in the source"}}, "note": "Read-outs that look alike come from different tables or passages of the source. No constants are given. Whether binding was seen depends on the method and setting. Binding seen in cells or lysates may run through a third protein. For part of these data: A result given as binding can be weak or reduced; the word gives no strength. Sequences can lack the tags named with a protein."}
{"substance": "EssA", "values": [{"measurement": "binding", "setting": "[1]", "value": "binds"}, {"measurement": "binding", "setting": "[2]", "value": "no binding (only in the ΔesaA mutant)"}]}
{"substance": "EssH (enzyme)", "values": [{"measurement": "binding", "setting": "[1]", "value": "binds"}]}
